Reference: PubChem BioAssay AID1671195 (Yale University, 2021)

Test: 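Knockdowns that increase or decrease uptake of fluorescent LDL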 (primary screen)
System: human Huh7 hepatoma cells
Reagent: siRNA pool against human genes, 18 nM
Timing: about 2 to 2.5 days of knockdown, then 8 h LDL uptake
Treatment: DiI-labelled LDL at 30 µg/ml for 8 h, in lipoprotein-deficient serum medium
Measurement: 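Fluorescent LDL signal imaged in cells, scaled to the plate median, robust z-score for each replicate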
Reading the numbers: robust z-score: higher = more LDL uptake after knockdown
Call rule: 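Active when two or more replicates show a robust z-score above 2 or below -2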
The deposit covers about 22,000 reagents; below is a random part of them. Of all reagents, about 1,510 (6.9%) were called active. 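Active includes knockdowns raising or lowering LDL uptake; positive z-scores mean more uptake, negative mean less.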 A number with no mark means an inactive call.

gene | robust z-score, replicate 1 | robust z-score, replicate 2 | robust z-score, replicate 3
EMCN (endomucin) | 0.674 | 0.609 | 1.31
C11orf42 (chromosome 11 open reading frame 42) | -1.95 | -0.692 | -1.8
ZNF845 (zinc finger protein 845) | 0.733 | 1.79 | 1.11
NUP93 (nucleoporin 93) | 0.0491 | 0.779 | -1.71
FCAR (Fc alpha receptor) | 1.02 | 0.855 | 1.22
YKT6P1 (YKT6 pseudogene 1) | 0.408 | -0.03 | 0.278
ARHGAP23 (Rho GTPase activating protein 23) | -1.68 (active) | -1.98 | -2.29
LOC441850 (retired record) | -0.357 | 0.0453 | -0.232
EGR2 (early growth response 2) | 0.485 | 1.26 | 0.321
VLDLR (very low density lipoprotein receptor) | -0.478 | 0.113 | -0.848
ADRA1A (adrenoceptor alpha 1A) | 0.483 | -0.579 | -0.263
ELL (elongation factor for RNA polymerase II) | -0.221 | -0.433 | -0.537
EDC4 (enhancer of mRNA decapping 4) | 1.63 | 1.57 | 2.95
UBAP2 (ubiquitin associated protein 2) | 1.92 | -0.578 | 1.07
LOC442400 (retired record) | -0.506 | -0.429 | 0.0259
C9orf163 (chromosome 9 putative open reading frame 163) | 0.231 | -0.084 | -0.253
FABP6 (fatty acid binding protein 6) | 2.03 (active) | 2.25 | 3.13
CFAP300 (cilia and flagella associated protein 300) | 0.673 | 0.796 | 0.457
GTF3C4 (general transcription factor IIIC subunit 4) | -0.524 | -1.8 | -2.06
CRTC3 (CREB regulated transcription coactivator 3) | -1.02 | -0.879 | -0.917
METAP1 (methionyl aminopeptidase 1) | 2.43 (active) | 2.73 | 2.12
BLZF1 (basic leucine zipper nuclear factor 1) | -0.108 | -0.286 | 0.419
LOC440180 (zinc finger CCHC-type containing 7 pseudogene) | 0.087 | 0.0873 | 0.763
CHAF1B (chromatin assembly factor 1 subunit B) | 0.615 | -0.0913 | 0.138
MGRN1 (mahogunin ring finger 1) | 3.41 | 0.21 | 1.52
CRYAA (crystallin alpha A) | -0.082 | 0.403 | 0.301
SEC24C (SEC24 homolog C, COPII component) | -0.706 | -0.987 | -1.19
CTNND2 (catenin delta 2) | -0.797 | 0.588 | 0.612
LOC440360 (retired record) | -0.316 | -0.311 | -0.52
FHDC1 (FH2 domain containing 1) | 4.14 (active) | 2.51 | 3.99
CYP26B1 (cytochrome P450 family 26 subfamily B member 1) | -1.65 | -1.81 | -1.89
H4C16 (H4 histone 16) | 1.07 | 0.97 | -0.211
F8A1 (coagulation factor VIII associated 1) | 1.09 | 1.26 | 1.65
LOC387898 (retired record) | -0.776 | -0.461 | -0.366
ALDOB (aldolase, fructose-bisphosphate B) | -0.78 | -0.905 | -1.07
LCE1C (late cornified envelope 1C) | 1.96 | 1.89 | 1.48
TIMD4 (T cell immunoglobulin and mucin domain containing 4) | -0.646 | -0.403 | -0.375

Continued; the last 7 above are carried over.
gene | robust z-score, replicate 1 | robust z-score, replicate 2 | robust z-score, replicate 3
CYP26B1 (cytochrome P450 family 26 subfamily B member 1) | -1.65 | -1.81 | -1.89
H4C16 (H4 histone 16) | 1.07 | 0.97 | -0.211
F8A1 (coagulation factor VIII associated 1) | 1.09 | 1.26 | 1.65
LOC387898 (retired record) | -0.776 | -0.461 | -0.366
ALDOB (aldolase, fructose-bisphosphate B) | -0.78 | -0.905 | -1.07
LCE1C (late cornified envelope 1C) | 1.96 | 1.89 | 1.48
TIMD4 (T cell immunoglobulin and mucin domain containing 4) | -0.646 | -0.403 | -0.375
CHCHD2 (coiled-coil-helix-coiled-coil-helix domain containing 2) | 0.595 | -0.207 | 0.256
LOC442377 (retired record) | -1.14 | -1.2 | -0.895
LINC02656 (long independently transcribed non-coding RNA 2656) | 0.18 | -0.343 | -0.806
CLN5 (CLN5 lysosomal BMP synthase) | -1.15 | -0.615 | -1.3
OR10T2 (olfactory receptor family 10 subfamily T member 2) | 0.534 | 0.651 | 1.58
URM1 (ubiquitin related modifier 1) | 0.0199 | -0.123 | 0.555
GPR32 (G protein-coupled receptor 32) | 2.35 | 1.25 | 1.89
LOC149329 (retired record) | 0.207 | -0.135 | -0.556
ZNF532 (zinc finger protein 532) | 0.384 | 0.35 | 0.361
LOC401676 (retired record) | -0.542 | -0.186 | -0.0808
CYP21A2 (cytochrome P450 family 21 subfamily A member 2) | 0.012 | 0.156 | -0.475
HSD17B3 (hydroxysteroid 17-beta dehydrogenase 3) | 0.153 | -0.425 | -0.249
B9D1 (B9 domain containing 1) | 0.00421 | 0.85 | -0.237
TMEM204 (transmembrane protein 204) | -1.17 | -0.991 | -0.745
LOC388893 (retired record) | -2.09 (active) | -2.16 | -2.05
CNTN1 (contactin 1) | 1.55 | 0.384 | 0.391
BCL9 (BCL9 transcription coactivator) | -0.87 | -1.05 | 1.71
ZNF521 (zinc finger protein 521) | 2.24 (active) | 2.88 | 2.7
AGPAT1 (1-acylglycerol-3-phosphate O-acyltransferase 1) | 0.192 | 0.204 | -0.347
KDM4B (lysine demethylase 4B) | -0.596 | -1.2 | -0.625
BBS7 (Bardet-Biedl syndrome 7) | -0.396 | 0.158 | -0.52
FNDC4 (fibronectin type III domain containing 4) | -0.559 | -0.465 | -0.0055
HSD3BP3 (hydroxy-delta-5-steroid dehydrogenase, 3 beta, pseudogene 3) | -0.308 | -0.517 | -0.354
FAAP20 (FA core complex associated protein 20) | -1.38 | -1.34 | -1.54
RPS25 (ribosomal protein S25) | 0.383 | 1.01 | 0.258
FGF4 (fibroblast growth factor 4) | -1.57 | -0.662 | -0.965
GNB1L (G protein subunit beta 1 like) | -0.133 | 0.419 | 0.189
MPHOSPH8 (M-phase phosphoprotein 8) | 0.528 | 1.6 | 0.274
FOXJ2 (forkhead box J2) | 0.121 | 0.924 | 1.62
PCDHA2 (protocadherin alpha 2) | -0.00937 | 0.0834 | -0.458
CLDN2 (claudin 2) | 2.62 (active) | 2.94 | 3.05
